Here are results for two substances from paper PMC5679597.

Amino acid sequences for entries named in this document (tags omitted). A change or cut given only in a name is not applied to a line headed by its entry.
UniProt Q13136: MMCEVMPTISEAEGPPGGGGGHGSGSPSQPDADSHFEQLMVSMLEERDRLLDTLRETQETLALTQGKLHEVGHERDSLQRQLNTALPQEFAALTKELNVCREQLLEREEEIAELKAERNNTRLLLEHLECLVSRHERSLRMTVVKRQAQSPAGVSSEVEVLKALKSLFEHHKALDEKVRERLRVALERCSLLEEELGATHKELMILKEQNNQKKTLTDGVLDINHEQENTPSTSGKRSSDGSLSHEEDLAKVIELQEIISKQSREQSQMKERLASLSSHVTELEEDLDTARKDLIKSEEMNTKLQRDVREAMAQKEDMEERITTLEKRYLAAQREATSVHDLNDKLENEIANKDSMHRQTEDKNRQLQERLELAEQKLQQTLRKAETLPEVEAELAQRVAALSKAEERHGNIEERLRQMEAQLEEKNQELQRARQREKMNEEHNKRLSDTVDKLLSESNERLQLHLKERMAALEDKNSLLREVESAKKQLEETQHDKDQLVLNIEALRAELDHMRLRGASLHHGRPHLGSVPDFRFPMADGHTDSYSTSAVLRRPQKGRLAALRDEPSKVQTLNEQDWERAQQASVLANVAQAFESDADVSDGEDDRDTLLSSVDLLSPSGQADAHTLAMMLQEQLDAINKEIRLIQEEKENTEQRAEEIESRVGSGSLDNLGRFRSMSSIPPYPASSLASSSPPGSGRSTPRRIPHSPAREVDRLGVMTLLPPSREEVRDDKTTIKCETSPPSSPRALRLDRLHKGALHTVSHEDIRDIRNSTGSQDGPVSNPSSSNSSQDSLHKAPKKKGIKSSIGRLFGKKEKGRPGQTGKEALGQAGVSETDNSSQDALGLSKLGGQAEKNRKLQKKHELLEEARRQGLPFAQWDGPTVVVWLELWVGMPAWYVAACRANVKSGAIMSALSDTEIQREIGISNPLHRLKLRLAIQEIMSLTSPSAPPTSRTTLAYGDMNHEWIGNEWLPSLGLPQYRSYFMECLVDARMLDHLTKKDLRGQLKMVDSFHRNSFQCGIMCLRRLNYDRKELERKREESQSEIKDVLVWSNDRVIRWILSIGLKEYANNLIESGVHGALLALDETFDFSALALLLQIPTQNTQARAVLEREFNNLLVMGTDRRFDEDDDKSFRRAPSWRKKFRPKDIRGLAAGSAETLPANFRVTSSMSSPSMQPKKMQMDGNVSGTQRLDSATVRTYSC

In experiment [1] the target is T1, GFP-LNX1 PDZ2 (aa377-470) (mouse) (UniProt O70263).
T1 sequence: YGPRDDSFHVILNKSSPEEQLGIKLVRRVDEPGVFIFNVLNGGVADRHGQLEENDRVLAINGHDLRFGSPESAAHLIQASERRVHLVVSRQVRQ
Put plainly: pull-down; GFP pull-down: GFP-tagged LNX constructs transfected into HEK 293 cells (HEK 293T in Fig 3A) alone or with the partner, captured on GFP-Trap_M beads, western blot; NaCl in the wash up to 500 mM in some cases. For orientation: In western blotting, separated proteins are transferred to a membrane and probed.

The target of another experiment is T2, GFP-tagged MID2 (human) (UniProt Q9UJV3).
T2 sequence: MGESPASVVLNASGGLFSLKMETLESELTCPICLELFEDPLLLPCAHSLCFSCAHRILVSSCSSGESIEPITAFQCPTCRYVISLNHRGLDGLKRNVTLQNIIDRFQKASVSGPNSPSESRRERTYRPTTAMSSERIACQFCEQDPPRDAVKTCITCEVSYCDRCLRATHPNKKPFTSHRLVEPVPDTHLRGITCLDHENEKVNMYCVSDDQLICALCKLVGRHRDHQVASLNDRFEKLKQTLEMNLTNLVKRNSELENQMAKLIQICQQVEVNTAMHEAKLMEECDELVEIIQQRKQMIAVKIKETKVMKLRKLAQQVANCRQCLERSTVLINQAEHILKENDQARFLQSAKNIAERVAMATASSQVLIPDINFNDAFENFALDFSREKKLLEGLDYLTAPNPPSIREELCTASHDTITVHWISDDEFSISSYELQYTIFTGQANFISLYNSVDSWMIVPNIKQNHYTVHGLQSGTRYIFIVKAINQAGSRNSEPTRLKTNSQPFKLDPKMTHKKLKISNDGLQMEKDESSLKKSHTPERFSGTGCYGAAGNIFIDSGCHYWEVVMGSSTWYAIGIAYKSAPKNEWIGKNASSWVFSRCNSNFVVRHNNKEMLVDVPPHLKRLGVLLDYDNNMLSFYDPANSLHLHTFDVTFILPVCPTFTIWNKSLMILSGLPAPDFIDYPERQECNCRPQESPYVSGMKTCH
Nature of the experiment: pull-down; GFP pull-down of GFP-tagged MID2 from cells co-transfected with untagged LNX1p70 and FLAG-liprin-α1, western blot.

Results are given in words; binding and its absence hold for the method and conditions named. Binding seen in cells or lysates may run through a third protein. For some assays here: Binding can be weak; no strength is given. Sequences can lack the tags named with a protein.

As to “FLAG-liprin-α1-C-mut (carboxyl-terminal YSC* to DSE*) (from UniProt Q13136)”, the binding result in experiment [1] is reported as “no binding”.

untagged LNX1p70: in the experiment with GFP-tagged MID2 (human), the binding entry was “binds”.
